Our source for the binding signal values is paper PMC7819943, “Rice protein-binding microarrays: a tool to detect cis-acting elements near promoter regions in rice”.

Protein sequences, listed by entry. Tags and fused reporters are not part of them.
UniProt Q0JBA9, entry or part of it: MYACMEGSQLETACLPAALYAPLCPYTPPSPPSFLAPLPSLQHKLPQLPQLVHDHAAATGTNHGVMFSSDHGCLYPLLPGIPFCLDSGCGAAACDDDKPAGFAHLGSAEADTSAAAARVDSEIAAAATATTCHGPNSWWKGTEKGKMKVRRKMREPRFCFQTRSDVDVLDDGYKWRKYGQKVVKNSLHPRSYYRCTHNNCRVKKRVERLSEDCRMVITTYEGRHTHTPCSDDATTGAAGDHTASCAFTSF

The other results are listed elsewhere or left out.

The target in this assay is OsWRKY34 (Oryza sativa, UniProt Q0JBA9 1-250). Put plainly: protein-binding microarray (RPBM); PBS, 2% BSA, 51.3 ng/ul salmon testes DNA, 50 uM zinc acetate, 200 nM TF, 25 C, 1 h; high values mean tight binding. The following applies: protein: recombinant; tags: N-terminal polyhistidine and DsRed monomer fusion (pET32a); label: CyDye5-dUTP incorporated in the synthesized complementary strand; 3' TTTTT single-stranded linker to array surface; dsDNA, one strand shown. The essentials: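 The binding signal is fluorescence intensity per feature, in arbitrary units, read on an Axon 4000B scanner. Polyhistidine- and DsRed-tagged transcription factors (N-terminal fusions) from E. coli BL21-CodonPlus were purified on Ni–NTA and applied at 200 nM for 1 h at 25 °C to a double-stranded, BSA-blocked custom Agilent array in buffer with 50 µM zinc acetate.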
With “TGTCCTACCATCTTTCCATCCCCATTGGCGCCAACCTTTCCGGAGTCACCTAGTGCAG”, the binding signal was 10900 fluorescence intensity (a.u.).

Take “TTTGCGCTGCTCTTTCCTCACATATTGATCACATTTGCCACGGAGTCACCTAGTGCAG”: the binding signal is 9540 fluorescence intensity (a.u.). For “ACACACAAACTTTCAACTTTTCTGTCACATCGTTCCAATTCGGAGTCACCTAGTGCAG”, the binding signal was 9750 fluorescence intensity (a.u.). With “CATCTATCCTGTTCCAAGAAGCCCCGTTCTTTTCTCCAACCGGAGTCACCTAGTGCAG” the figure was 9520 fluorescence intensity (a.u.); with “CGCACGATGCATCCTTCATCCTGGCCTCACGGCATCGTTCCGGAGTCACCTAGTGCAG”, 8320 fluorescence intensity (a.u.); with “AGGCGCTCCATAGGCCTCGTCATCTTCACAGTCACACACCCGGAGTCACCTAGTGCAG”, 11200 fluorescence intensity (a.u.). Regarding “TGTTCTTGGTCGCCGCCATGTCCTCGCCGCCGTCTGATCCCGGAGTCACCTAGTGCAG”, the binding signal is 11100 fluorescence intensity (a.u.). The value for “TTTTTTTGCGGGGTTTTTCCAATGTATCGATCATTGTTGACGGAGTCACCTAGTGCAG” was 10800 fluorescence intensity (a.u.).

“CAATCAATCTCGAGCTCTCCGCCAATACAAACTTGACAACCGGAGTCACCTAGTGCAG”: the binding signal was 8250 fluorescence intensity (a.u.). With “GGAGGTGGAGGGGTAAGGTGTGGGATCGCGGTGACGCCGCCGGAGTCACCTAGTGCAG” the figure was 10400 fluorescence intensity (a.u.); with “TGAAGGGCGGGAGGGGCGTTGCGCGGGAGTGGCCGCGCGGCGGAGTCACCTAGTGCAG”, 8670 fluorescence intensity (a.u.); with “TTTTCTCTCACTTACATATGGGCCCCATGTACCTTTTTTTCGGAGTCACCTAGTGCAG”, 9310 fluorescence intensity (a.u.). With “TTTCGTCATGTCTTCATCTTCGGTTGCTAGGTCACGCCGTCGGAGTCACCTAGTGCAG” the figure was 9980 fluorescence intensity (a.u.); with “ACGTGGTCCCGGGCATCTAGCATTCTACCCGCAATGGTTGCGGAGTCACCTAGTGCAG”, 10400 fluorescence intensity (a.u.); with “ATATGGCGCGCTACGGATGGTTGTGGTGGGGAAAAAGCCCCGGAGTCACCTAGTGCAG”, 8380 fluorescence intensity (a.u.).

With “GGGTGATATATTTCATATTAATCTATGTTGTTAATTTTTTCGGAGTCACCTAGTGCAG”, the binding signal was 10600 fluorescence intensity (a.u.). Regarding “GCCCAAATATTCCCGTGGCCCATCTCCTCCTCCGTCTCGGCGGAGTCACCTAGTGCAG”, the binding signal was 8060 fluorescence intensity (a.u.). “ATCGACTTCATCCTCCTGTGCATTTCATCTTTTTCTTTATCGGAGTCACCTAGTGCAG”: the binding signal was 8770 fluorescence intensity (a.u.).

As to “ATCAAAGTTGCTGGGGTTAATTTGGGTTCTTGGTTGTGAACGGAGTCACCTAGTGCAG”, the binding signal was 15600 fluorescence intensity (a.u.).

Consider “GTAGCGGCGGCCCGGCAGGAGGGGAGGCGGGGTGGCGGGACGGAGTCACCTAGTGCAG”, for which the binding signal was 16200 fluorescence intensity (a.u.).

“AGCCCACCGTCGCAGCCGGAGCAACCGCACTGTTCACACACGGAGTCACCTAGTGCAG”: the binding signal is 8140 fluorescence intensity (a.u.). With “ATCCTCCGTCTCTTCTGTCTCTCTCTCAAGTCTGAGCAACCGGAGTCACCTAGTGCAG” the figure was 8370 fluorescence intensity (a.u.); with “GACGAGCATTCCTGCCGTTCCCGGTACACGTCGTCCCTCTCGGAGTCACCTAGTGCAG”, 8360 fluorescence intensity (a.u.).

With “GCGGCGCCTTCTCCAGTTCTCTTGCTTGGCAACTGATCCGCGGAGTCACCTAGTGCAG”, the binding signal is 8710 fluorescence intensity (a.u.).

Consider “TCAATTAATTTTATTCGATTCATAGCCTCGACATTACTAGCGGAGTCACCTAGTGCAG”, for which the binding signal was 8850 fluorescence intensity (a.u.). The value for “CTCTTCGTCCAGTTCATCATCCTCGTCCGCCCCATCGACGCGGAGTCACCTAGTGCAG” was 8570 fluorescence intensity (a.u.); that for “ATTTTGGAAGTTTTTGTCATAGGGGTATTTTGGTCATTTCCGGAGTCACCTAGTGCAG” was 11200 fluorescence intensity (a.u.). The value for “AGGAAAACAAAATCCTTCACACCGTTTTTTTCTAATATACCGGAGTCACCTAGTGCAG” was 8660 fluorescence intensity (a.u.); that for “GAGACATCCTTAGCCGGGTCTGTGATCACTTTTGCTTACACGGAGTCACCTAGTGCAG” was 12000 fluorescence intensity (a.u.). For “GGCCTTGTTTTTTTTTTTGCTAGTAATTTAGGTTCCACAACGGAGTCACCTAGTGCAG”, the binding signal is 9880 fluorescence intensity (a.u.).

In the case of “GATAAGGCGCCCCACCCGTCAGTCTCACGGTTTCTGCTTTCGGAGTCACCTAGTGCAG”, the binding signal was 10700 fluorescence intensity (a.u.).

On to “GCTCTAACTCCTCCAATCTCCTAGCCAAAGTAATCCATAGCGGAGTCACCTAGTGCAG”, for which the binding signal was 8090 fluorescence intensity (a.u.). The value for “ATATTCAGTTTGTTTCTCCTGGCAGAACCACTTTTCTTCTCGGAGTCACCTAGTGCAG” was 11500 fluorescence intensity (a.u.); that for “CTGTTAGTTTCTAGTTGCTGTTTACATTGTAACTTTTTGTCGGAGTCACCTAGTGCAG” was 11000 fluorescence intensity (a.u.).

“TAGAACCGTCATCTCCCGCCTGGGCCCCACATACCAGCCACGGAGTCACCTAGTGCAG”: the binding signal was 8420 fluorescence intensity (a.u.).

Turning to “GCTGCTACTCTCAACCAGTTCTTCTTTCCTATACCACCACCGGAGTCACCTAGTGCAG”, the binding signal was 10500 fluorescence intensity (a.u.). As to “CATTTTAGAACTTGTTGGTACTGTACTTGTTTTTTTTTTTCGGAGTCACCTAGTGCAG”, the binding signal is 8720 fluorescence intensity (a.u.). For the sequence “CTCATTTCCAAACACATATACATTATTCACAGCTAGCACTCGGAGTCACCTAGTGCAG”, the binding signal is 8200 fluorescence intensity (a.u.). Turning to “GTTAGTTTTGGAAGTTGAGGGACATATCATATCTGGTGTTCGGAGTCACCTAGTGCAG”, the binding signal was 8570 fluorescence intensity (a.u.).

Consider “CAGTTCCGTCTTCCGTCCGCCTCACTCACGGCGTCGCGCCCGGAGTCACCTAGTGCAG”, for which the binding signal is 10000 fluorescence intensity (a.u.). The value for “GAGGGAGTATGGTTTTCAAAATAATCGGTTTAACAGTTTTCGGAGTCACCTAGTGCAG” was 8030 fluorescence intensity (a.u.); that for “GCAGCCGGACCGTCACGTTGCTTGCGCTGTTGGCTGTTGCCGGAGTCACCTAGTGCAG” was 8910 fluorescence intensity (a.u.).
